# Test results reported in PubChem BioAssay AID493014 (National Center for Advancing Translational Sciences (NCATS), 2011).
# In all, about 340,000 compounds went through this assay and about 170 (0.05%) were called active. Inconclusive means that the source gave no clear call. Such entries were picked first, then a sample of the others. Calls come from the whole dose curve; as a rule, active = well fitted inhibition curve with a large enough effect in the signal ratio, with a control signal flat (not every such curve was filed as active); inconclusive = small, poorly fitted or top-dose-only effect, or effect the other way, or a change in a side signal; inactive = flat fitted curve, though single readings scatter; the % refers to the signal ratio. Potencies of inconclusive entries are doubtful fits and often do not repeat.
# Assay: qHTS Assay to Find Inhibitors of Chronic Active B-Cell Receptor Signaling;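 for activity change, negative = inhibition: plate controls were basal doxycycline-induced cells for no effect and cells given 10 µM MG132 for full effect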
# Conditions: ABC-DLBCL IkBa-CBG/CBR reporter, luminescence ratio (green luciferase fused to IkBa over red control in TMD8 lymphoma cells), 4 h; activity change, negative = inhibition: at 46.1 µM (top of the series)
# Procedure, shortened: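 TMD8 ABC-DLBCL cells carrying doxycycline-inducible green luciferase fused to IkappaBalpha plus unfused red luciferase were exposed to compounds (up to 46 uM) for 4 hrs at 37C. Activity came from the overlap-corrected green/red luminescence ratio.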
# Potency is the fitted concentration of half-maximal effect.
Compound,Potency,"activity change, negative = inhibition"
CCCCNc1cc(C)nc(NCc2ccccc2)n1,"inconclusive: 22.4 µM [falling, single point]",
COC(=O)c1cccc(CN2C(=O)SC(Nc3ccc(C)cc3)C2=O)c1 (stereo unspecified),,inactive
O=C(O)c1ccc(-c2ccc(O)c(F)c2)cc1,"inconclusive: 0.13 µM [rising, full curve]",
CCc1nnc(NC(=O)CSc2nnc(-c3ccco3)o2)s1,"inconclusive: 35.5 µM [rising, single point]",
COC(=O)c1nn(-c2ccccc2)c(Sc2ccc(Br)cc2)c1/C=N/O,,inconclusive: 2.67%
CC1(C)Cc2c(cnn2-c2ccc(F)cc2)C(NC(=O)CCN2CCCC2=O)C1 (stereo unspecified),,inactive
CC(=O)c1c(C)oc2ccc(NS(=O)(=O)c3ccc(O)c(C(=O)O)c3)cc12,,inactive
Cc1cccc2sc(N(CCN(C)C)C(=O)/C=C/c3cccs3)nc12,"inconclusive: 18.4 µM [falling, partial curve, poor fit]",
O=C(CN1C(=O)S/C(=C\C=C\c2ccccc2)C1=O)N1CCCCC1,,inconclusive: 6.87%
CCN(CC(=O)NCc1ccc(Cl)cc1)S(=O)(=O)c1ccc(NC(C)=O)cc1,,inconclusive: 0.509%
O=C1CCCc2nc(N3CCc4ccccc43)ncc21,,inconclusive: 3.63%
COc1ccccc1-n1c(=O)c(C#N)c(-c2ccc([N+](=O)[O-])cc2)c2cc(C(=O)c3ccccc3O)cnc21,"inconclusive: 2.51 µM [falling, partial curve, poor fit]",
O=C(Nc1ccc2c(c1)OCO2)c1cnn2c1NC(c1ccco1)CC2C(F)(F)F (stereo unspecified),,inconclusive: 0.548%
Cc1nn(C)c(C)c1C(=O)NN,"inconclusive: 1.16 µM [falling, full curve]",
CC(C(=O)Nc1ccc2c(c1)OCCO2)N(C)CC(=O)Nc1ccccc1Br (stereo unspecified),,inconclusive: -6.77%
Cc1ccc(C(C(=O)NCC2CCCO2)N(C(=O)c2snc(C(N)=O)c2N)c2ccc3c(c2)OCCO3)cc1 (stereo unspecified),,inactive
CCc1nn2cc(C(=O)c3ccccc3O)cnc2c1-c1ccc(F)cc1,"inconclusive: 23.1 µM [falling, partial curve]",
COC(=O)c1ccccc1NC(=O)c1cc2ccccc2o1,"inconclusive: 4.47 µM [falling, partial curve, poor fit]",
O=C(Nc1ccccc1)c1ccc(CN2CCc3ccccc3C2)cc1,,inactive
N#CC1=C(N)C(C#N)(C#N)[C@H](c2ccncc2)[C@H]2CC3(CC=C12)OCCO3,,inconclusive: 0.912%
COc1ccc(Br)cc1CN1CCN(Cc2c[nH]c3ccccc23)CC1,,inconclusive: -16.1%
Cc1cccc(Cn2c(Cc3ccccc3)nc3ccccc32)c1,,inactive
Cc1ccc(Cl)cc1NC(=O)C1CCCN1S(=O)(=O)c1ccc(-c2ccc(=O)[nH]n2)s1 (stereo unspecified),,inconclusive: -0.845%

Compound,Potency,"activity change, negative = inhibition"
O=C(COC(=O)c1ccccc1SCC(=O)N1CCCC1)Nc1ccccc1OC(F)F,"inconclusive: 16.4 µM [falling, single point]",
O=C(Cc1csc(Nc2nc(=S)[nH]c3ccccc23)n1)NCCCN1CCN(c2ccccc2F)CC1,,inconclusive: 20.9%
CC(=O)N(/N=C/c1ccc([N+](=O)[O-])o1)c1nc2ccccc2c(=O)n1-c1ccccc1,,inconclusive: 2.74%
CCN(CC)C(=O)Cn1cnc2sc(C(=O)Nc3cc(OC)c(OC)c(OC)c3)c(C)c2c1=O,,inconclusive: -18.5%
CCCc1cc(=O)n2[nH]c(NCc3ccccc3F)nc2n1,"inconclusive: 18.4 µM [falling, single point]",
O=C1CCCN1c1ccc(S(=O)(=O)Nc2ccc3c(c2)OCCO3)cc1,"inconclusive: 29.1 µM [falling, partial curve, poor fit]",
O=C(c1cc(-c2cccs2)on1)N1CCN(C(c2ccccc2)c2ccccc2)CC1,,inconclusive: -12.1%
COc1ccc(NC(=O)CCS(=O)(=O)c2ccccc2Cl)cc1S(=O)(=O)Nc1ccc(Cl)cc1,"inconclusive: 22.4 µM [falling, partial curve, poor fit]",
CCC(=O)Nc1cccc(-c2nc3cc(C)ccc3o2)c1,,inconclusive: -0.539%
CC(=O)NC(Cc1ccccc1F)C(=O)NC1CCN(C(=O)NCc2ccccc2)CC1 (stereo unspecified),,inconclusive: -1.04%
Cc1cccc([C@@H]2[C@@H]3C(=O)N(Cc4ccccc4)C(=O)[C@@H]3[C@]3(Cc4ccccc4)C(=O)N(c4ccc(C(F)(F)F)cc4)C(=O)N23)c1,,inconclusive: 10.8%
CC(=O)c1ccc(N2CCN(c3ccc4cc(S(=O)(=O)N5CCC(C)CC5)ccc4n3)CC2)cc1,,inactive
CC(C)(C)OC(=O)N[C@H](C(=O)OC(C)(C)C)c1ccc2c(c1)OCO2,,inconclusive: 0.0821%
Cc1ccc2c(c1)nnn2C1CCN(S(=O)(=O)c2ccc(C(=O)N3C(C)CCCC3C)cc2)CC1 (stereo unspecified),,inconclusive: 18.3%
CCOc1ccc2nc(NC(=O)Cn3[nH]c(=O)c4ccccc4c3=O)sc2c1,,inactive
CCOC(=O)CCC(=O)N1CCOCCOCCN(C(=O)CCC(=O)OCC)CCOCCOCC1,,inconclusive: 15.8%
CCC(=O)Nc1ccc2nc(C)n(Cc3ccccc3Cl)c(=O)c2c1,,inconclusive: -0.811%
COC(=O)c1ccccc1NC(=O)c1nc2nc(C)cc(C(F)F)n2n1,"inconclusive: 5.8 µM [falling, partial curve, poor fit]",
O=C(Nc1cccc2ncccc12)c1cccc(Br)c1,,inconclusive: 2.26%
O=C(Nc1ccc(O)cc1)c1ccc(C(=O)c2ccccc2)o1,"inconclusive: 11.2 µM [falling, partial curve, poor fit]",
N#Cc1c(NC(=O)c2ccc([N+](=O)[O-])o2)sc2c1CCC2,"inconclusive: 10 µM [falling, partial curve]",
CC(C)CN1C2CCCC1CC(NC(=O)c1ccc([N+](=O)[O-])cc1)C2 (stereo unspecified),,inactive
O=C(NC(=S)NNC(=O)c1ccccc1F)c1cccnc1,"inconclusive: 31.6 µM [falling, partial curve]",
